# System: cathepsins B, S, and H
# Assay: Proteolytic mapping (ProtMap) of native and citrullinated autoantigens by cathepsins B, S, and H with LFQ-MS
# Assay type: biochemical, human
# Settings: protein-level LFQ-MS abundance in cathepsin B; for PAD2-Citrullinated Replicate 2 (protein abundance) / PAD2-Citrullinated Replicate 3 (protein abundance) / PAD2-Citrullinated Replicate 4 (protein abundance): H digest of PAD2-citrullinated vimentin
# Experimental: Prior to proteolytic mapping, citrullinated antigens were generated by incubating recombinant human antigens—hnRNP A2/B1 (RA33; custom-made as previously described by in ref. [24]), fibrinogen (Cayman Chemical), and vimentin (PeproTech)—with Sf9-purified peptidylarginine deiminase 2 or 4 (PAD2 or PAD4; Inova) at a 17:1 mass ratio in citrullination buffer (100 mM Tris, 1 mM DTT, 5 mM CaCl2, pH 7.5) for 4 h at 37 °C. Native antigens were diluted in the same buffer without PAD enzymes and without incubation at 37 °C to prevent degradation. Citrullination was confirmed by anti-peptidylcitrulline (clone F95, EMD Millipore) immunoblotting. Native and citrullinated antigen pools were split into four 15 µg replicates per condition before digestion (except hnRNP A2/B1, which was digested in double-volume replicates of three and later split into two each, total n = 6, prior to MS) by cathepsins B, S, and H (Millipore Sigma). Digestions were incubated in digestion buffer (citrate phosphate buffer, 4 mM DTT, 1 mM EDTA, pH 5.0) for 4 h at 37 °C. Fibrinogen and vimentin were digested at a 60:1 antigen:cathepsin mass ratio per cathepsin, and hnRNP A2/B1 was digested at a 150:1 antigen:cathepsin mass ratio per cathepsin to achieve full digestion of the protein. Digestion was confirmed by Coomassie Blue staining, and the remaining samples were centrifuged through a 10-kDa-spin filter (Microcon, Millipore) to remove undigested protein fragments. The resulting peptide repertoires were then analyzed by LFQ–MS.
# Prior to MS, the samples were reduced and alkylated by incubating in 10 mM Tris (2-Carboxyethyl) phosphine hydrochloride (TCEP, v/v) and 50 mM chloroacetamide (CAA, v/v) for 1 h at room temperature. The samples were then desalted using C18 StageTips (3 M Empore) after acidifying with 1% trifluoroacetic acid (TFA). The peptide solution was vacuum-dried and stored at ‒80 °C. The peptide samples were analyzed on an Orbitrap Fusion Lumos Tribrid mass spectrometer interfaced with an Ultimate 3000 RS Autosampler nanoflow liquid chromatography system (Thermo Scientific). The dried peptides were reconstituted in 15 µL of 0.5% formic acid (FA) and then loaded onto a trap column (Acclaim™ PepMap™ 100 LC C18, 5 μm, 100 μm × 2 cm, Thermo Scientific) at a flow rate of 8 μL/min. Peptides were separated on an analytical column (Easy-Spray™ PepMap™ RSLC C18, 2 μm, 75 μm × 50 cm, Thermo Scientific) at a flow rate of 0.3 μL/min using a linear gradient with mobile phases consisting of 0.1% FA in water and in 95% acetonitrile (ACN) for 120 min. The mass spectrometer was operated in data-dependent acquisition (DDA) mode. The MS1 (precursor ions) scan range for a full survey scan was acquired from 300 to 1800 m/z in the top speed setting with a resolution of 120,000 at an m/z of 200. The AGC target for MS1 was set as 1 × 10^6, and the maximum injection time was 100 milliseconds. The most intense ions with charge states of 2–5 were isolated in a 3-s cycle, fragmented using higher-energy collisional dissociation (HCD) fragmentation with 32% normalized collision energy, and detected at a mass resolution of 50,000 at an m/z of 200. The AGC target for MS/MS (fragments) was set as 5 × 10^4, and the ion filling time was 100 milliseconds. The precursor isolation window was set to 1.6 m/z with a 0.4 m/z offset. The dynamic exclusion was set to 30 s, and singly charged ions were rejected. Internal calibration was carried out using the lock mass option (m/z 445.1200025) from ambient air[59]–[61].
# Proteome Discoverer (version 2.4.1.15, Thermo Scientific) was used for the identification and quantitation of proteins. During MS/MS preprocessing, the top 10 peaks in each window of 100 m/z were selected for database search. […]
# [1] = H digest of PAD4-citrullinated vimentin, replicate 3
# [2] = H digest of PAD4-citrullinated vimentin
Substance,PAD2-Citrullinated Replicate 2 (protein abundance) (replicate 2),PAD2-Citrullinated Replicate 3 (protein abundance) (replicate 3),PAD2-Citrullinated Replicate 4 (protein abundance),"PAD4-Citrullinated Replicate 2 (protein abundance) (H digest of PAD4-citrullinated vimentin, replicate 2)",PAD4-Citrullinated Replicate 3 (protein abundance) [1],PAD4-Citrullinated Replicate 4 (protein abundance) [2],"Native Replicate 3 (protein abundance) (H digest of native vimentin, replicate 3)","PAD4-Citrullinated Replicate 1 (protein abundance) (H digest of PAD4-citrullinated vimentin, replicate 1)","Native Replicate 2 (protein abundance) (H digest of native vimentin, replicate 2)"
ASPGVVVDIAHSPPAKKK [PAD4_31],69498390144,75023587211,63482555894,68414829501,64165668937,29327676864,47958317258,,
"Vimentin: recombinant human vimentin (PeproTech), RA autoantigen; native or citrullinated by PAD2 or PAD4",1199521932007,1060709356015,1237469794972,,1096666848298,949352273349,,979669399242,1132521940814

# Reference: publication PMC9958131 (Nature Communications, 2023)
